What all share (assay): co-IP; transient co-transfection in U2OS; IP buffer 50 mM Tris pH 7.4, 150 mM NaCl, 10% glycerol, 0.1% NP-40, 1 mM DTT; antibody-conjugated agarose (ORCA, T7 or HA antibody) overnight; immunoblot; for G9a-Suv39H1 also in control and ORCA siRNA cells
(A western blot detects proteins with antibodies after separation by electrophoresis.)

By UniProt entry, the sequences of proteins in these tests, tags left out.
UniProt Q96KQ7: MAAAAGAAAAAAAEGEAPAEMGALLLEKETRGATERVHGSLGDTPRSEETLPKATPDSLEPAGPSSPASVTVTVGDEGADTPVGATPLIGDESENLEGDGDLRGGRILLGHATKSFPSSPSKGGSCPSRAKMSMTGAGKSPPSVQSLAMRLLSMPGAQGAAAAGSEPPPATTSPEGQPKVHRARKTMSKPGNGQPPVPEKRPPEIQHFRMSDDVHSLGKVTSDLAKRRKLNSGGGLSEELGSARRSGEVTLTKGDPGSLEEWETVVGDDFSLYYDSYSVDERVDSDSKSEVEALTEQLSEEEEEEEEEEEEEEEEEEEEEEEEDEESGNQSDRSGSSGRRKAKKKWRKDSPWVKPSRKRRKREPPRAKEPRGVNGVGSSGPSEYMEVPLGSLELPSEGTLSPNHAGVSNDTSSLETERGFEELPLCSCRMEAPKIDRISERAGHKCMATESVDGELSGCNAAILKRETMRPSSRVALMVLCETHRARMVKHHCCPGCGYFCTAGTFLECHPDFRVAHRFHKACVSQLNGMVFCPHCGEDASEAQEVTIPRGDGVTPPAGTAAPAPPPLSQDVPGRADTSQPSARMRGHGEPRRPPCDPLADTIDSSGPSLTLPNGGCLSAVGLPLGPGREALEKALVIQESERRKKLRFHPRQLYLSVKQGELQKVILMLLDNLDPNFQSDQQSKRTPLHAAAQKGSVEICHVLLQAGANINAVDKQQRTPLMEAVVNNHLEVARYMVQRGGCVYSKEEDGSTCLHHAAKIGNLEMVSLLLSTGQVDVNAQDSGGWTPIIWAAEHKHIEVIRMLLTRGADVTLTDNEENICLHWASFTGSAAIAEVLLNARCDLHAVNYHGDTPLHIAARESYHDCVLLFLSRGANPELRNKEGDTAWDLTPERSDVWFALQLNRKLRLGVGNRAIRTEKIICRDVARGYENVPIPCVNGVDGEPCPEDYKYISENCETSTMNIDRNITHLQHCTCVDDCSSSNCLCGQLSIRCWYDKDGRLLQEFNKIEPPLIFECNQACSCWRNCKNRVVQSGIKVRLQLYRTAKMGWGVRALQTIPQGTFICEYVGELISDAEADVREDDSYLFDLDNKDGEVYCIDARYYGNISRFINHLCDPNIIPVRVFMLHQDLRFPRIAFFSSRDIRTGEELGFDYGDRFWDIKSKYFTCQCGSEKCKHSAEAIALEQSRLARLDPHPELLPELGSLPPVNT

Assay [1] addresses T1, T7-ORCA (full-length) (human) (UniProt Q9UFC0).
T1 sequence: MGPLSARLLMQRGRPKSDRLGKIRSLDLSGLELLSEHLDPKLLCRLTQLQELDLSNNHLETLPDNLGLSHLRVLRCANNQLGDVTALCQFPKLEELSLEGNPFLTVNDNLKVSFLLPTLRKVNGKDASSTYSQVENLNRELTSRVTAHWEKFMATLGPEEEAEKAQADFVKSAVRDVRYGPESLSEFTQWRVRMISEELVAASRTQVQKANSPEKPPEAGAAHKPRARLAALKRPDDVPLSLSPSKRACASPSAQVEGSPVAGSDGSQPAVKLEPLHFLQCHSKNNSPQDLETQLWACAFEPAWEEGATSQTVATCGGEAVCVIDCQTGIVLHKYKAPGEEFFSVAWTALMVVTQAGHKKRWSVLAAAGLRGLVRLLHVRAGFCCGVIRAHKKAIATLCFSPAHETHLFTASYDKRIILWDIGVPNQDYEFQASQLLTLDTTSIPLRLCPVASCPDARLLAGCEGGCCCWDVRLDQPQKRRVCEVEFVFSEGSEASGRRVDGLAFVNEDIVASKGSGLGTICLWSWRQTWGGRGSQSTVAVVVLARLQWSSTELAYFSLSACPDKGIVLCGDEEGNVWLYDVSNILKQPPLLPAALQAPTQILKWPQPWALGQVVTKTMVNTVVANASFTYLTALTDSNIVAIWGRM

A further assay concerns the target T2, T7-ORCA (1–270) (human) (UniProt Q9UFC0).
T2 sequence: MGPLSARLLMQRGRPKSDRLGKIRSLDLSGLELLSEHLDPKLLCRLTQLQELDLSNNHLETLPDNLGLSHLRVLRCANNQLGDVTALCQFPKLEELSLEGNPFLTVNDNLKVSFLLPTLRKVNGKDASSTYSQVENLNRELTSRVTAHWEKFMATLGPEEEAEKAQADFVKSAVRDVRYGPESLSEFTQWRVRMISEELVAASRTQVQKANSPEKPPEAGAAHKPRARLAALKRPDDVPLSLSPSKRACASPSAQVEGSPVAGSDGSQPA

Assay [2] concerns the target T3, T7-ORCA (270–647) (human) (UniProt Q9UFC0).
T3 sequence: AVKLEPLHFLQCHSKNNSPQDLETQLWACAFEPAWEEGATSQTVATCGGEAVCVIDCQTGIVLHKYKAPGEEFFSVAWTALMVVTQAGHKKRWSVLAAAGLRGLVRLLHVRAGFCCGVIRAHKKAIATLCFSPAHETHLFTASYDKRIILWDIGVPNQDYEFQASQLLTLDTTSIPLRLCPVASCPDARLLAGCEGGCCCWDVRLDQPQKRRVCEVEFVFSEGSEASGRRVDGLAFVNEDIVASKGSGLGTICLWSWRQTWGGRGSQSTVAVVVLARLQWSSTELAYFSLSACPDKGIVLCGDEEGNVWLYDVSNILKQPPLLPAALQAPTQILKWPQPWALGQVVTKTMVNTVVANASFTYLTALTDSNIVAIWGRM

Results are given in words; binding and its absence hold for the method and conditions named. In cells and extracts the contact can be indirect. Some binding calls cover weakened binding; strength is not graded here.

In the case of “Flag-G9a (from UniProt Q96KQ7 1-1210) (enzyme)”, the binding result in assay [1] is “binds”; in the assay with T7-ORCA (1–270) (human) it was “no binding”; in assay [2], “binds”.

Values taken from PMC4442312 (eLife, 2015).
